Data as given in publication PMC4980336.
These are yes or no findings as the source states them, for the method shown. Some results given as binding are weak or reduced against the parent protein; the word gives no strength.

Sequences of proteins named here, by UniProt entry; tags and fusion partners are left off.
UniProt P53618: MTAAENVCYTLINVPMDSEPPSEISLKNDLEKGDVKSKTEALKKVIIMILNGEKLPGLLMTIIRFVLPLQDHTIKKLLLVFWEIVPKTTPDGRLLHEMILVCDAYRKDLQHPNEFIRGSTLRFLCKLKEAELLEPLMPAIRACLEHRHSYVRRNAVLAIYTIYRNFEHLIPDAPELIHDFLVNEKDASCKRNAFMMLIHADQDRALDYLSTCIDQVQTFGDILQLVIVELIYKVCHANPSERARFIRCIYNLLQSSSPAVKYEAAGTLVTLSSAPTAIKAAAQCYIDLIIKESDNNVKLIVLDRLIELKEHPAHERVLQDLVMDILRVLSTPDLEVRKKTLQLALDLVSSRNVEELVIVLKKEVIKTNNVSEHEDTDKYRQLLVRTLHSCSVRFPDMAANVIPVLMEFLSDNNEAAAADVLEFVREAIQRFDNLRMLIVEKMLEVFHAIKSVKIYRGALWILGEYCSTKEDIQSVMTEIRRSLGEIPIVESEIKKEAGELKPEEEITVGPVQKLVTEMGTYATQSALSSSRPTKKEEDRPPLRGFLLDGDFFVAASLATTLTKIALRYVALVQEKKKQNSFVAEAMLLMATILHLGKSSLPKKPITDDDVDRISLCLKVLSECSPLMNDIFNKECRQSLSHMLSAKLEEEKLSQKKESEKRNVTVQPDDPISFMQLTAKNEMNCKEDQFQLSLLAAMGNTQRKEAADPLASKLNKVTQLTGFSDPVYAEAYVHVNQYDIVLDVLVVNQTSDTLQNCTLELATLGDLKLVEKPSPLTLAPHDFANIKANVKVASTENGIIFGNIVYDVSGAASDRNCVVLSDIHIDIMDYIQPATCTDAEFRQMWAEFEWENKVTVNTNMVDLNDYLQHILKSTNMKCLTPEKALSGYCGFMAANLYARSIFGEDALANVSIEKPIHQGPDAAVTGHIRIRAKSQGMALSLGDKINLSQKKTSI

T1: α-COP isoform 1 (subunit of recombinant human coatomer) (human) (UniProt P53621)
T1 sequence: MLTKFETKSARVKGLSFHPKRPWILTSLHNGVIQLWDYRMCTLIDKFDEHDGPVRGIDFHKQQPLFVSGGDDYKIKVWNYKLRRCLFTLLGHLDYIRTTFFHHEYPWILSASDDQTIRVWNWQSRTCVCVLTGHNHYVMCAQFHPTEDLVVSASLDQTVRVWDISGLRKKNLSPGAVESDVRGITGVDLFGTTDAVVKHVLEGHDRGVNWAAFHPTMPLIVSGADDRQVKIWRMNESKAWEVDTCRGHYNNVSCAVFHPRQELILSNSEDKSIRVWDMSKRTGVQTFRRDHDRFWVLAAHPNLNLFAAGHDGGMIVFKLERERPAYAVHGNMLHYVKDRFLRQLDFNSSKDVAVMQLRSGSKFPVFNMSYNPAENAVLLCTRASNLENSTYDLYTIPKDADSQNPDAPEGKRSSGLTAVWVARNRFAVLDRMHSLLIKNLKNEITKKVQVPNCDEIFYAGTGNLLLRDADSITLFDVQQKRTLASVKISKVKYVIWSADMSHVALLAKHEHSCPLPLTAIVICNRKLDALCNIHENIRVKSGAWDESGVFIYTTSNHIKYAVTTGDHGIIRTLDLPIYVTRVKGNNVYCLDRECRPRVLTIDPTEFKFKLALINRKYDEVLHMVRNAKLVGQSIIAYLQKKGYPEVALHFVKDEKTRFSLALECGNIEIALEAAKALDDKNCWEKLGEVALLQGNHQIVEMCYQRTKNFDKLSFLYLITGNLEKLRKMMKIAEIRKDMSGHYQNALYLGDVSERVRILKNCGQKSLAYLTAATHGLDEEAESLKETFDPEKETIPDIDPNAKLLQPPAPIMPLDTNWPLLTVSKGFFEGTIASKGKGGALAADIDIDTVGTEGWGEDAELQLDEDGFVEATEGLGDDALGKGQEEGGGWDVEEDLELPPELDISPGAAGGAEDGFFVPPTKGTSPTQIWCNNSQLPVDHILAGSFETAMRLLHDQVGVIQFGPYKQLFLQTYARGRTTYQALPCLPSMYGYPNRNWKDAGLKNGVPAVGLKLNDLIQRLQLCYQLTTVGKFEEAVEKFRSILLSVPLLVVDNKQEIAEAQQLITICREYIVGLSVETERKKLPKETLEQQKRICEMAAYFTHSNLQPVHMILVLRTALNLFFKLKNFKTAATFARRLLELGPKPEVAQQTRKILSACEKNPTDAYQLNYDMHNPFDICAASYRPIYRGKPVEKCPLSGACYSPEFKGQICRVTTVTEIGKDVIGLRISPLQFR


Key:
[1] = biological target: T1, α-COP isoform 1 (subunit of recombinant human coatomer) (human); assay: negative-stain EM, single-particle reconstruction; soluble recombinant human coatomer, co-expressed and purified as one complex; 2% uranyl acetate; 19 Å overall, 18 Å and 20 Å for the two parts after focus refinement; model of membrane-bound coatomer (PDB 5A1U) fitted as a rigid body; both purified
[2] = biological target: β-COP (subunit of recombinant human coatomer) (human) (UniProt P53618); assay: cross-linking; CXMS: about 12 μg purified COPI complex (co-expressed and purified as one complex) with BS3, DSS or Sulfo-GMBS, protein : cross-linker 1:8 or 1:4, one hour at room temperature; trypsin, LC-MS/MS, pLink; both purified

Binder | binding [1] | binding [2]
β′-COP (subunit of recombinant human coatomer) (protein, UniProt P35606-1 1-906) MPLRLDIKRKLTARSDRVKSVDLHPTEPWMLASLYNGSVCVWNHETQTLVKTFEVCDLPVRAAKFVARKNWVVTGADDMQIRVFNYNTLERVHMFEAHSDYIRCIAVHPTQPFILTSSDDMLIKLWDWDKKWSCSQVFEGHTHYVMQIVINPKDNNQFASASLDRTIKVWQLGSSSPNFTLEGHEKGVNCIDYYSGGDKPYLISGADDRLVKIWDYQNKTCVQTLEGHAQNVSCASFHPELPIIITGSEDGTVRIWHSSTYRLESTLNYGMERVWCVASLRGSNNVALGYDEGSIIVKLGREEPAMSMDANGKIIWAKHSEVQQANLKAMGDAEIKDGERLPLAVKDMGSCEIYPQTIQHNPNGRFVVVCGDGEYIIYTAMALRNKSFGSAQEFAWAHDSSEYAIRESNSIVKIFKNFKEKKSFKPDFGAESIYGGFLLGVRSVNGLAFYDWDNTELIRRIEIQPKHIFWSDSGELVCIATEESFFILKYLSEKVLAAQETHEGVTEDGIEDAFEVLGEIQEIVKTGLWVGDCFIYTSSVNRLNYYVGGEIVTIAHLDRTMYLLGYIPKDNRLYLGDKELNIISYSLLVSVLEYQTAVMRRDFSMADKVLPTIPKEQRTRVAHFLEKQGFKQQALTVSTDPEHRFELALQLGELKIAYQLAVEAESEQKWKQLAELAISKCQFGLAQECLHHAQDYGGLLLLATASGNANMVNKLAEGAERDGKNNVAFMSYFLQGKVDACLELLIRTGRLPEAAFLARTYLPSQVSRVVKLWRENLSKVNQKAAESLADPTEYENLFPGLKEAFVVEEWVKETHADLWPAKQYPLVTPNEERNVMEEGKDFQPSRSTAQQELDGKPASPTPVIVASHTANKEEKSLLELEVDLDNLELEDIDTTDINLDEDILDD | binds | 
δ-COP isoform 1 (subunit of recombinant human coatomer) (protein, UniProt P48444-1 1-511) MVLLAAAVCTKAGKAIVSRQFVEMTRTRIEGLLAAFPKLMNTGKQHTFVETESVRYVYQPMEKLYMVLITTKNSNILEDLETLRLFSRVIPEYCRALEENEISEHCFDLIFAFDEIVALGYRENVNLAQIRTFTEMDSHEEKVFRAVRETQEREAKAEMRRKAKELQQARRDAERQGKKAPGFGGFGSSAVSGGSTAAMITETIIETDKPKVAPAPARPSGPSKALKLGAKGKEVDNFVDKLKSEGETIMSSSMGKRTSEATKMHAPPINMESVHMKIEEKITLTCGRDGGLQNMELHGMIMLRISDDKYGRIRLHVENEDKKGVQLQTHPNVDKKLFTAESLIGLKNPEKSFPVNSDVGVLKWRLQTTEESFIPLTINCWPSESGNGCDVNIEYELQEDNLELNDVVITIPLPSGVGAPVIGEIDGEYRHDSRRNTLEWCLPVIDAKNKSGSLEFSIAGQPNDFFPVQVSFVSKKNYCNIQVTKVTQVDGNSPVRFSTETTFLVDKYEIL |  | binds
